This is an account of results in PMC7672472 (2020).

This experiment has as its system MA-46 (MA) (DNA, aptamer) CTTACGACTCAGGCATTTTGCCGGGTAACGAAGTTACTGTCGTAAG
Kind of experiment: ITC. Particulars: 20 mM Na+, 5 mM Mg2+; 10 mM Tris-HCl pH 7.4, 23 °C; one-site model.

SMILES strings stand for the structures.

In the case of `CN(C)CCOC(c1ccccc1)c1ccccc1`, the Kd – broadly, a measure of binding affinity in units of concentration – was 195 ± 5 µM.
